# Measurements reported in PubChem BioAssay AID1224830 (NIAID, 2016).
# Screen: 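Genes whose knock-down alters the TNF-alpha reporter response to LPS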 (primary screen)
# Cell system: human THP-1 monocytic leukaemia cells, TNF dual-luciferase reporter clone, PMA-differentiated to macrophage-like cells
# Reagent: siRNA pool against human genes, 50 nM
# Timing: LPS for 4 h, given about 3 days after siRNA transfection
# Conditions: bacterial LPS (TLR4 ligand), 10 ng/ml
# Measured: 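Ratio of firefly to renilla light, scaled to the plate median and expressed as a robust z-score per replicate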
# Scale: TNF reporter robust z-score: higher = stronger TNF reporter response to LPS
# Active means: 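Each well counts as active if its z-score is over 2.8 or under -1.5; controls are left without a call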
# Shown is an unselected part of about 18,000 deposited reagents. Over the whole deposit, about 2,900 (16%) were called active. 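Calls are made per well; low scores hint the gene aids the LPS response, high scores that it dampens it.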 A number with no mark means an inactive call. Repeated entries: four replicate wells of each siRNA pool. Reagent sequences are not shown.
Gene,TNF reporter robust z-score
KIF3B (kinesin family member 3B),0.55
KIF3B (kinesin family member 3B),0.88
KIF3B (kinesin family member 3B),0.62
KIF3B (kinesin family member 3B),2.46
GSDMD (gasdermin D),-0.67
GSDMD (gasdermin D),-1.69 (active)
GSDMD (gasdermin D),-1.54 (active)
GSDMD (gasdermin D),-0.54
GSN (gelsolin),0.65
GSN (gelsolin),1.05
GSN (gelsolin),2.7
CTAGE1 (cutaneous T cell lymphoma-associated antigen 1),2.86 (active)
CTAGE1 (cutaneous T cell lymphoma-associated antigen 1),2.81 (active)
CTAGE1 (cutaneous T cell lymphoma-associated antigen 1),0.44
CTAGE1 (cutaneous T cell lymphoma-associated antigen 1),-0.08
MAT2B (methionine adenosyltransferase 2 non-catalytic beta subunit),0.34
MAT2B (methionine adenosyltransferase 2 non-catalytic beta subunit),2.5
MAT2B (methionine adenosyltransferase 2 non-catalytic beta subunit),1.15
MAT2B (methionine adenosyltransferase 2 non-catalytic beta subunit),0.85
MPO (myeloperoxidase),-0.03
MPO (myeloperoxidase),0.4
MPO (myeloperoxidase),-0.37
MPO (myeloperoxidase),1.58
CACNA1H (calcium voltage-gated channel subunit alpha1 H),0.06
CACNA1H (calcium voltage-gated channel subunit alpha1 H),-0.15
CACNA1H (calcium voltage-gated channel subunit alpha1 H),1.51
CACNA1H (calcium voltage-gated channel subunit alpha1 H),1.06
UNK (unk zinc finger),1.97
UNK (unk zinc finger),0.02
UNK (unk zinc finger),1.36
UNK (unk zinc finger),5.11 (active)
RNF170 (ring finger protein 170),0.37
RNF170 (ring finger protein 170),-0.55
RNF170 (ring finger protein 170),-1.71 (active)
RNF170 (ring finger protein 170),-0.93
AMOT (angiomotin),1.22
AMOT (angiomotin),1.16
AMOT (angiomotin),-0.2
AMOT (angiomotin),1.2
HOXB1 (homeobox B1),-0.02
HOXB1 (homeobox B1),0.28
HOXB1 (homeobox B1),0.4
HOXB1 (homeobox B1),0.48
SEMA3B (semaphorin 3B),0.27
SEMA3B (semaphorin 3B),1.19
SEMA3B (semaphorin 3B),0.93
SEMA3B (semaphorin 3B),0.84
RPH3A (rabphilin 3A),0.28
RPH3A (rabphilin 3A),0.74
RPH3A (rabphilin 3A),-0.18
RPH3A (rabphilin 3A),2.61
LYST (lysosomal trafficking regulator),-0.18
LYST (lysosomal trafficking regulator),-0.15
LYST (lysosomal trafficking regulator),0.32
LYST (lysosomal trafficking regulator),0.35
ZNF77 (zinc finger protein 77),0.17
ZNF77 (zinc finger protein 77),0.3
ZNF77 (zinc finger protein 77),0.51
ZNF77 (zinc finger protein 77),-0.42

The list goes on; the last 5 above are carried over.
Gene,TNF reporter robust z-score
LYST (lysosomal trafficking regulator),0.35
ZNF77 (zinc finger protein 77),0.17
ZNF77 (zinc finger protein 77),0.3
ZNF77 (zinc finger protein 77),0.51
ZNF77 (zinc finger protein 77),-0.42
FAM163B (family with sequence similarity 163 member B),0.22
FAM163B (family with sequence similarity 163 member B),1.1
FAM163B (family with sequence similarity 163 member B),0.44
FAM163B (family with sequence similarity 163 member B),1.03
PSORS1C2 (psoriasis susceptibility 1 candidate 2),-1.17
PSORS1C2 (psoriasis susceptibility 1 candidate 2),-0.22
PSORS1C2 (psoriasis susceptibility 1 candidate 2),-1.9 (active)
PSORS1C2 (psoriasis susceptibility 1 candidate 2),-1.38
TPTE2,-0.27
TPTE2,0.27
TPTE2,-0.44
TPTE2,1.29
USB1 (U6 snRNA biogenesis phosphodiesterase 1),0.25
USB1 (U6 snRNA biogenesis phosphodiesterase 1),0.46
USB1 (U6 snRNA biogenesis phosphodiesterase 1),1.38
USB1 (U6 snRNA biogenesis phosphodiesterase 1),0.52
"RAB1B (RAB1B, member RAS oncogene family)",0.46
"RAB1B (RAB1B, member RAS oncogene family)",-0.72
"RAB1B (RAB1B, member RAS oncogene family)",-0.36
"RAB1B (RAB1B, member RAS oncogene family)",-0.14
PIAS3 (protein inhibitor of activated STAT 3),-0.35
PIAS3 (protein inhibitor of activated STAT 3),0.49
PIAS3 (protein inhibitor of activated STAT 3),0.21
PIAS3 (protein inhibitor of activated STAT 3),0.99
GNPTG (N-acetylglucosamine-1-phosphate transferase subunit gamma),-0.23
GNPTG (N-acetylglucosamine-1-phosphate transferase subunit gamma),1.12
GNPTG (N-acetylglucosamine-1-phosphate transferase subunit gamma),-0.13
GNPTG (N-acetylglucosamine-1-phosphate transferase subunit gamma),0.92
TMEM131L (transmembrane 131 like),1.36
TMEM131L (transmembrane 131 like),1.3
TMEM131L (transmembrane 131 like),1.74
TMEM131L (transmembrane 131 like),0.54
TPSD1 (tryptase delta 1),-0.19
TPSD1 (tryptase delta 1),2.51
TPSD1 (tryptase delta 1),2.14
TPSD1 (tryptase delta 1),2.8 (active)
ALX3 (ALX homeobox 3),-0.03
ALX3 (ALX homeobox 3),-0.65
ALX3 (ALX homeobox 3),0.08
ALX3 (ALX homeobox 3),0.04
FBXL14 (F-box and leucine rich repeat protein 14),1
FBXL14 (F-box and leucine rich repeat protein 14),2.7
FBXL14 (F-box and leucine rich repeat protein 14),3.12 (active)
FBXL14 (F-box and leucine rich repeat protein 14),-2.04 (active)
OR52B4 (olfactory receptor family 52 subfamily B member 4),0.15
OR52B4 (olfactory receptor family 52 subfamily B member 4),0.31
OR52B4 (olfactory receptor family 52 subfamily B member 4),-1.19
OR52B4 (olfactory receptor family 52 subfamily B member 4),0.43
SERF1A (small EDRK-rich factor 1A),-0.93
SERF1A (small EDRK-rich factor 1A),-0.5
SERF1A (small EDRK-rich factor 1A),-0.85
SERF1A (small EDRK-rich factor 1A),0.36
